Reference: paper doi:10.1101/2020.09.29.317958
Results are given in words; binding and its absence hold for the method and conditions named. In cells and extracts the contact can be indirect. A result given as binding can be weak or reduced; the word gives no strength. Sequences can lack the tags named with a protein.

B1: endogenous Trim39 (protein, UniProt Q9ESN2 1-488)
chain: MAETSLLEAGASAASTAAALENLQVEASCSVCLEYLKEPVIIECGHNFCKACITRWWEDLERDFPCPVCRKTSRYRSLRPNRQLGSMVEIAKQLQTVKRKIRDESLCSQHHEPLSLFCYEDQEAVCLICAISHTHRPHTVVPMDDATQEYKEKLQKCLEPLEQKLQEITCCKASEEKKPGELKRLVESRRQQILKEFEELHRRLDEEQQTLLSRLEEEEQDILQRLRENAAHLGDRRRDLAHLAAEVEGKCLQSGFEMLKDVKSTLEKCEKVKTMEVTSVSIELEKNFSNFPRQYFALRKILKQLIADVTLDPETAHPNLVLSEDRKSVKFVETRLRDLPDTPQRFTFYPCVLATEGFTSGRHYWEVEVGDKTHWAVGVCRDSVSRKGELTPLPETGYWRVRLWNGDKYAATTTPFTPLHIKVKPKRVGIFLDYEAGTLSFYNVTDRSHIYTFTDTFTEKLWPLFYPGIRAGRKNAAPLTIRPPTDWE
B2: Flag-Trim39 (protein, UniProt Q9ESN2 1-488)
chain: B1 chain

Biological target: endogenous NFATc3 (mouse (endogenous in Neuro2A))
Experiment: proximity ligation

Binder	binding
B1	binds
B2	binds
